Laboratory results from the supplement of paper PMC4604168 (melanoma cell lines).
This is one part of the list. Single values are uncertain, as repeats are few or missing.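 The apoptosis fraction was the count of cleaved-PARP antibody-stained nuclei relative to all DNA-stained nuclei, imaged in 1,536-well plates. Screening doses were set so most cells survived, and baseline and induced cleaved-PARP levels vary greatly across cell lines.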

What was measured:
Assay in all cases: cleaved PARP positive nuclei fraction relative to DMSO control; melanoma cells; higher = more apoptosis
Conditions in all cases: library dose: low library concentration; 72 h
[1] = tested on: 501Mel
[2] = tested on: A101D
[3] = tested on: A2058
[4] = tested on: C32
[5] = tested on: CBRC008 (line from a melanoma biopsy)
[6] = tested on: CBRC014 (line from a melanoma biopsy)
[7] = tested on: CBRC016 (line from a melanoma biopsy)
[8] = tested on: CBRC017 (line from a melanoma biopsy)
[9] = tested on: COLO792
[10] = tested on: COLO800
[11] = tested on: COLO829
[12] = tested on: G361
[13] = tested on: IPC-298
[14] = tested on: IST-MEL1
[15] = tested on: LB2518-MEL
[16] = tested on: LOXIMVI

Which results are given for `C=C(c1ccc(C(=O)O)cc1)c1cc2c(cc1C)C(C)(C)CCC2(C)C` [Bexarotene] + Cn1cc(/C=C2\C(=O)Nc3cccnc32)c2ccccc21 [GW441756] (first compound 2 µM, partner dose 0.4 µM)?
cleaved PARP positive nuclei fraction [1]: 72.7%; cleaved PARP positive nuclei fraction [2]: 9.49%; cleaved PARP positive nuclei fraction [3]: 74.1%; cleaved PARP positive nuclei fraction [4]: 81.6%; cleaved PARP positive nuclei fraction [5]: 342%; cleaved PARP positive nuclei fraction [6]: 136%; cleaved PARP positive nuclei fraction [7]: 220%; cleaved PARP positive nuclei fraction [8]: 450%; cleaved PARP positive nuclei fraction [9]: 149%; cleaved PARP positive nuclei fraction [10]: 30.5%; cleaved PARP positive nuclei fraction [11]: 133%; cleaved PARP positive nuclei fraction [12]: 47%; cleaved PARP positive nuclei fraction [13]: 95.5%; cleaved PARP positive nuclei fraction [14]: 109%; cleaved PARP positive nuclei fraction [15]: 53.8%; cleaved PARP positive nuclei fraction [16]: 63.4%

`CN1CCN(c2ccc3nc(-c4c(N)c5c(F)cccc5[nH]c4=O)[nH]c3c2)CC1` [Dovitinib] + COC(=O)c1sccc1S(=O)(=O)Nc1ccc(Nc2ccccc2)cc1OC [GSK0660] (first compound 0.1 µM, partner dose 1 µM) was tested. Which “cleaved PARP positive nuclei fraction” value [1] did it give?
The value was 213%.

What about the “cleaved PARP positive nuclei fraction” value [2] of the same molecule?
The value was 44.1%.

What about the “cleaved PARP positive nuclei fraction” value [3] of the same molecule?
The value was 141%.

And the “cleaved PARP positive nuclei fraction” value [4]?
The value was 134%.

What about the “cleaved PARP positive nuclei fraction” value [5] of the same molecule?
Its value is 69.3%.

What about the “cleaved PARP positive nuclei fraction” value [6] of the same molecule?
Its value is 94.2%.

And the “cleaved PARP positive nuclei fraction” value [7]?
Its value is 39.8%.

What about the “cleaved PARP positive nuclei fraction” value [8] of the same molecule?
The value was 102%.

What about the “cleaved PARP positive nuclei fraction” value [9] of the same molecule?
Its value is 165%.

What about the “cleaved PARP positive nuclei fraction” value [10] of the same molecule?
The value was 104%.

And the “cleaved PARP positive nuclei fraction” value [11]?
The value was 83%.

And the “cleaved PARP positive nuclei fraction” value [12]?
Its value is 109%.

And the “cleaved PARP positive nuclei fraction” value [13]?
The value was 88.3%.

What about the “cleaved PARP positive nuclei fraction” value [14] of the same molecule?
The value was 183%.

What about the “cleaved PARP positive nuclei fraction” value [15] of the same molecule?
The value was 75.6%.

And the “cleaved PARP positive nuclei fraction” value [16]?
Its value is 170%.

`C[C@@H](Oc1cc(-c2cnn(C3CCNCC3)c2)cnc1N)c1c(Cl)ccc(F)c1Cl` [Crizotinib] + COc1cc(N2CCC(N3CCN(C)CC3)CC2)ccc1Nc1ncc(Cl)c(Nc2ccccc2S(=O)(=O)C(C)C)n1 [NVP-TAE684] (first compound 0.2 µM, partner dose 0.08 µM) was tested. Which “cleaved PARP positive nuclei fraction” value [1] did it give?
Its value is 136%.

And the “cleaved PARP positive nuclei fraction” value [2]?
The value was 26.9%.

What about the “cleaved PARP positive nuclei fraction” value [3] of the same molecule?
The value was 193%.

And the “cleaved PARP positive nuclei fraction” value [4]?
The value was 130%.

And the “cleaved PARP positive nuclei fraction” value [5]?
The value was 66.3%.

What about the “cleaved PARP positive nuclei fraction” value [6] of the same molecule?
The value was 45.6%.

What about the “cleaved PARP positive nuclei fraction” value [7] of the same molecule?
The value was 32.8%.

And the “cleaved PARP positive nuclei fraction” value [8]?
Its value is 57.6%.

And the “cleaved PARP positive nuclei fraction” value [9]?
Its value is 104%.

And the “cleaved PARP positive nuclei fraction” value [10]?
The value was 136%.

What about the “cleaved PARP positive nuclei fraction” value [11] of the same molecule?
The value was 332%.

And the “cleaved PARP positive nuclei fraction” value [12]?
Its value is 71.1%.

What about the “cleaved PARP positive nuclei fraction” value [13] of the same molecule?
Its value is 28.3%.

And the “cleaved PARP positive nuclei fraction” value [14]?
Its value is 150%.

What about the “cleaved PARP positive nuclei fraction” value [15] of the same molecule?
Its value is 53.1%.

What about the “cleaved PARP positive nuclei fraction” value [16] of the same molecule?
Its value is 80.4%.

How did the “cleaved PARP positive nuclei fraction” value [1] turn out when `Cc1cc(Nc2cc(N3CCN(C)CC3)nc(/C=C/c3ccccc3)n2)n[nH]1` + Cn1cc(/C=C2\C(=O)Nc3cccnc32)c2ccccc21 [GW441756] (first compound 0.04 µM, partner dose 0.4 µM) was run?
Its value is 33%.

And the “cleaved PARP positive nuclei fraction” value [2]?
Its value is 35.6%.

And the “cleaved PARP positive nuclei fraction” value [3]?
The value was 52.5%.

What about the “cleaved PARP positive nuclei fraction” value [4] of the same molecule?
Its value is 53.6%.

And the “cleaved PARP positive nuclei fraction” value [5]?
Its value is 50.1%.

And the “cleaved PARP positive nuclei fraction” value [6]?
Its value is 99.3%.

And the “cleaved PARP positive nuclei fraction” value [7]?
The value was 35.9%.

And the “cleaved PARP positive nuclei fraction” value [8]?
The value was 96.2%.

What about the “cleaved PARP positive nuclei fraction” value [9] of the same molecule?
Its value is 76.3%.

And the “cleaved PARP positive nuclei fraction” value [10]?
Its value is 29.4%.

And the “cleaved PARP positive nuclei fraction” value [11]?
Its value is 184%.

And the “cleaved PARP positive nuclei fraction” value [12]?
The value was 93.4%.

And the “cleaved PARP positive nuclei fraction” value [13]?
The value was 161%.

What about the “cleaved PARP positive nuclei fraction” value [14] of the same molecule?
The value was 57.3%.

What about the “cleaved PARP positive nuclei fraction” value [15] of the same molecule?
The value was 61%.

What about the “cleaved PARP positive nuclei fraction” value [16] of the same molecule?
The value was 94.1%.

Which results are given for `O=C(O)c1ccc2c(c1)nc(Nc1cccc(Cl)c1)c1ccncc12` + O=c1cc(-c2cccc3c2Sc2ccccc2S3)oc(N2CCOCC2)c1 [KU55933] (first compound 0.4 µM, partner dose 1 µM)?
cleaved PARP positive nuclei fraction [1]: 80%; cleaved PARP positive nuclei fraction [2]: 53.5%; cleaved PARP positive nuclei fraction [3]: 128%; cleaved PARP positive nuclei fraction [4]: 162%; cleaved PARP positive nuclei fraction [5]: 66.2%; cleaved PARP positive nuclei fraction [6]: 167%; cleaved PARP positive nuclei fraction [7]: 90.6%; cleaved PARP positive nuclei fraction [8]: 186%; cleaved PARP positive nuclei fraction [9]: 81.7%; cleaved PARP positive nuclei fraction [10]: 45.2%; cleaved PARP positive nuclei fraction [11]: 91.9%; cleaved PARP positive nuclei fraction [12]: 86.9%; cleaved PARP positive nuclei fraction [13]: 49.8%; cleaved PARP positive nuclei fraction [14]: 197%; cleaved PARP positive nuclei fraction [15]: 113%; cleaved PARP positive nuclei fraction [16]: 128%

What does the source list for `O=C(O)c1ccc2c(c1)nc(Nc1cccc(Cl)c1)c1ccncc12` + COC(=O)c1sccc1S(=O)(=O)Nc1ccc(Nc2ccccc2)cc1OC [GSK0660] (first compound 0.4 µM, partner dose 1 µM)?
cleaved PARP positive nuclei fraction [1]: 55%; cleaved PARP positive nuclei fraction [2]: 17.4%; cleaved PARP positive nuclei fraction [3]: 62.2%; cleaved PARP positive nuclei fraction [4]: 71.1%; cleaved PARP positive nuclei fraction [5]: 48.8%; cleaved PARP positive nuclei fraction [6]: 164%; cleaved PARP positive nuclei fraction [7]: 92.3%; cleaved PARP positive nuclei fraction [8]: 163%; cleaved PARP positive nuclei fraction [9]: 104%; cleaved PARP positive nuclei fraction [10]: 49.7%; cleaved PARP positive nuclei fraction [11]: 118%; cleaved PARP positive nuclei fraction [12]: 226%; cleaved PARP positive nuclei fraction [13]: 132%; cleaved PARP positive nuclei fraction [14]: 112%; cleaved PARP positive nuclei fraction [15]: 53.8%; cleaved PARP positive nuclei fraction [16]: 248%

How did the “cleaved PARP positive nuclei fraction” value [1] turn out when `Nc1ncn([C@H]2C[C@H](O)[C@@H](CO)O2)c(=O)n1` [decitabine] + COc1cc(N2CCC(N3CCN(C)CC3)CC2)ccc1Nc1ncc(Cl)c(Nc2ccccc2S(=O)(=O)C(C)C)n1 [NVP-TAE684] (first compound 0.1 µM, partner dose 0.08 µM) was run?
The value was 70.7%.

And the “cleaved PARP positive nuclei fraction” value [2]?
The value was 23%.

What about the “cleaved PARP positive nuclei fraction” value [3] of the same molecule?
The value was 90.6%.

What about the “cleaved PARP positive nuclei fraction” value [4] of the same molecule?
Its value is 136%.

What about the “cleaved PARP positive nuclei fraction” value [5] of the same molecule?
Its value is 437%.

And the “cleaved PARP positive nuclei fraction” value [6]?
Its value is 54.2%.

What about the “cleaved PARP positive nuclei fraction” value [7] of the same molecule?
Its value is 90.7%.

And the “cleaved PARP positive nuclei fraction” value [8]?
Its value is 100%.

And the “cleaved PARP positive nuclei fraction” value [9]?
Its value is 211%.

What about the “cleaved PARP positive nuclei fraction” value [10] of the same molecule?
Its value is 100%.

And the “cleaved PARP positive nuclei fraction” value [11]?
Its value is 50%.

What about the “cleaved PARP positive nuclei fraction” value [12] of the same molecule?
The value was 101%.

What about the “cleaved PARP positive nuclei fraction” value [13] of the same molecule?
Its value is 176%.

And the “cleaved PARP positive nuclei fraction” value [14]?
The value was 112%.

And the “cleaved PARP positive nuclei fraction” value [15]?
Its value is 128%.

What about the “cleaved PARP positive nuclei fraction” value [16] of the same molecule?
The value was 138%.

With `C=C(c1ccc(C(=O)O)cc1)c1cc2c(cc1C)C(C)(C)CCC2(C)C` [Bexarotene] + COc1cc(N2CCC(N3CCN(C)CC3)CC2)ccc1Nc1ncc(Cl)c(Nc2ccccc2S(=O)(=O)C(C)C)n1 [NVP-TAE684] (first compound 2 µM, partner dose 0.08 µM) as the molecule, how does the “cleaved PARP positive nuclei fraction” value [1] read?
The value was 120%.

What about the “cleaved PARP positive nuclei fraction” value [2] of the same molecule?
The value was 21.8%.

And the “cleaved PARP positive nuclei fraction” value [3]?
The value was 99.2%.

What about the “cleaved PARP positive nuclei fraction” value [4] of the same molecule?
The value was 125%.

And the “cleaved PARP positive nuclei fraction” value [5]?
Its value is 123%.

And the “cleaved PARP positive nuclei fraction” value [6]?
Its value is 138%.

And the “cleaved PARP positive nuclei fraction” value [7]?
Its value is 94.3%.

What about the “cleaved PARP positive nuclei fraction” value [8] of the same molecule?
The value was 115%.

What about the “cleaved PARP positive nuclei fraction” value [9] of the same molecule?
The value was 57.3%.

What about the “cleaved PARP positive nuclei fraction” value [10] of the same molecule?
The value was 202%.

What about the “cleaved PARP positive nuclei fraction” value [11] of the same molecule?
The value was 116%.

What about the “cleaved PARP positive nuclei fraction” value [12] of the same molecule?
The value was 91.1%.

And the “cleaved PARP positive nuclei fraction” value [13]?
Its value is 91%.

And the “cleaved PARP positive nuclei fraction” value [14]?
The value was 48.5%.

What about the “cleaved PARP positive nuclei fraction” value [15] of the same molecule?
The value was 39.5%.

And the “cleaved PARP positive nuclei fraction” value [16]?
Its value is 67.3%.

`Cc1cc(Nc2cc(N3CCN(C)CC3)nc(/C=C/c3ccccc3)n2)n[nH]1` + COC(=O)c1sccc1S(=O)(=O)Nc1ccc(Nc2ccccc2)cc1OC [GSK0660] (first compound 0.04 µM, partner dose 1 µM) was tested. Which “cleaved PARP positive nuclei fraction” value [1] did it give?
Its value is 135%.

What about the “cleaved PARP positive nuclei fraction” value [2] of the same molecule?
Its value is 13.5%.

And the “cleaved PARP positive nuclei fraction” value [3]?
The value was 45.6%.

And the “cleaved PARP positive nuclei fraction” value [4]?
Its value is 42.6%.

What about the “cleaved PARP positive nuclei fraction” value [5] of the same molecule?
Its value is 119%.

What about the “cleaved PARP positive nuclei fraction” value [6] of the same molecule?
The value was 120%.

What about the “cleaved PARP positive nuclei fraction” value [7] of the same molecule?
Its value is 68.8%.

And the “cleaved PARP positive nuclei fraction” value [8]?
The value was 99.5%.

And the “cleaved PARP positive nuclei fraction” value [9]?
The value was 94%.

And the “cleaved PARP positive nuclei fraction” value [10]?
The value was 70%.

And the “cleaved PARP positive nuclei fraction” value [11]?
The value was 36.7%.

And the “cleaved PARP positive nuclei fraction” value [12]?
The value was 344%.

What about the “cleaved PARP positive nuclei fraction” value [13] of the same molecule?
Its value is 64.5%.

And the “cleaved PARP positive nuclei fraction” value [14]?
Its value is 84.7%.

And the “cleaved PARP positive nuclei fraction” value [15]?
The value was 19.4%.

And the “cleaved PARP positive nuclei fraction” value [16]?
The value was 111%.
